This series in a line: Solubility in water at pH 7.4. The following applies: buffer.

These results are taken from ChEMBL document CHEMBL1140015, “Pyrazolone methylamino piperidine derivatives as novel CCR3 antagonists” (Bioorg Med Chem Lett, 2007).

≈ marks a conversion by molar mass, not a printed value.

A word on the solubility: it is the dissolved amount per volume that the medium holds. A high value points to much dissolved substance. Take `Cc1c(CN(CCc2ccccn2)C2CCN(C(=O)c3c(F)cccc3F)CC2)c(=O)n(-c2ccc(F)cc2)n1C`: the solubility worked out at 1500 µg/mL (≈ 2660 µM).
